No constants are given. Whether binding was seen depends on the method and setting. Binding seen in cells or lysates may run through a third protein. Sequences can lack the tags named with a protein.
Biological target: nls-tetracycline-repressor fused to EGFP (UniProt P04483)
Assay: co-IP; S2R+ cells transiently co-expressing the tagged proteins; cleared lysate (20 mM Tris-HCl pH 7.5, 300 mM NaCl, 2 mM MgCl2, 0.1% Nonidet P-40 Substitute, 5% glycerol, 0.5 mM EGTA, 1 mM DTT, Benzonase) on GFP-Trap agarose (anti-EGFP), 1 hour, 4°C; immunoblot

Amino acid sequences for entries named in this document (tags omitted).
UniProt P04483: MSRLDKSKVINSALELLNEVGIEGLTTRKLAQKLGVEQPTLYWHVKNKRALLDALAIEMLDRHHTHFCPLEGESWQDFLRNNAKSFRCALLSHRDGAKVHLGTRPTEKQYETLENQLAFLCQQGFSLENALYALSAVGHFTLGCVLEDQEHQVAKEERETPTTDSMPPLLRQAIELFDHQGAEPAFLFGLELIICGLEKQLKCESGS

binding: no binding
B1: TEF-myc (protein, UniProt Q7K4M4 1-649)
chain: MSKFLDMLSGSQCVSLEKCGDVVVSTNDCMIALYCHFCRDLFTQLPEFLRHLQSNHSDVLHFTKEHNVYSVEELLSGEQGKAHEDAQSAGHNSSSGDSSSLMNSEDSRAIEGSEDNSDNSPMKPEQIGKQSEINLLAEVTNILLQTNDKELKPENGVFNRPRKKANNESSSLKICDLKSHTIARTSRKRMSMVKNRILRVLDSDLSAKLEIKPPEPNSKLSITEPIQEDNIPGTCFDTPTKPIPSSSQLSVRKSSLTEANQICTKYAEKKTAPTMPKLLNCVPKPILTSQQAHTNAEISEINETYHLAASQVTKTTKTFPVKITQIDILQPVKLPKTLITPINEEGVSDQVENSTNNINNAQSLPKENTKKFFKKRSELGIKAQGSPNKFFKIIKSKANPIIVKRVQTTSAKASTNKIQIRSNDKTNCFASEFNSTKIRKLKMENCVDLKSEDPCANTNTRLNKLATISSCEILKAVGLPAITDNPIEDTLLPDELETIRKKADQFIKIYRKYDSIWNYRKICPPAKPDFISQQIFALTREVNKTMLCNLANSDIKGIINQISVWHYNIYTQYIDLDTISENARYTLKLFSFLPVSFAYFCKCCDDIFILKKEYLKHLISHQVRFQCTKCIKVFKYKGYYEKHLRNAHS
